Measured values published in patent US20230331848A1.
These are yes or no findings as the source states them, for the method shown. Some results given as binding are weak or reduced against the parent protein; the word gives no strength.

Protein sequences, listed by entry. Tags and fused reporters are not part of them. Residues count along the entry.
UniProt Q15116, residues 25-167: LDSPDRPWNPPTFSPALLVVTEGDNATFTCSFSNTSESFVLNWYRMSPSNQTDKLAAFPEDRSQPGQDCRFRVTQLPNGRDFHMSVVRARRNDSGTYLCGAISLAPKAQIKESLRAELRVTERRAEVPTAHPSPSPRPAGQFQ

Assays:
[1] = biological target: human PD-1-his protein (Cat#:PD1-H5221, Acro biosystems Inc.) (human) (UniProt Q15116); assay: BLI (Octet RED96)
[2] = biological target: cynomolgus PD-1-his protein (Cat#:PD1-05223, Acro biosystems Inc.) (cynomolgus) (UniProt B0LAJ3); assay: SPR (Biacore)

binding [1] | binding [2] | Binder
binds |  | humanized antibody huE1A9C8A7-V1 (antibody, human IgG4 S228P, kappa, V domains shown) VH: QVQLVQSGAEVVKPGASVKISCKASGYTFSDYVMHWMRQAPGQSLEWIGVISTYHIPAVYNQKFKGKATMTVDKSTSTVYLELSSLRSEDTAVYYCAREVYGDSYYFDVWGQGTTVTVSS VL: DIVMTQTPLSLPVTPGEPASISCRSSQSIVHSNGNTYLEWYLQKPGQSPQLLIYKVSNRFSGVPDRFSGSGSGTDFTLKISRVEAEDVGVYYCFQGSHVPYTFGGGTKVEIKR
 | binds | humanized antibody huE1A9C8A7-V8-3 (antibody, human IgG4 S228P, kappa, V domains shown) VH: QVQLVQSGAEVVKPGASVKISCKASGYTFTDYVMHWVRQAPGQSLEWMGVISTYHIPAVYNQKFKGKATMTVDTSTSTVYLELSSLRSEDTAVYYCAREVYGESYYFDVWGQGTTVTVSS VL: DIVMTQTPLSLPVTPGEPASISCRSSQSIVHSAGNTYLEWYLQKPGQSPQLLIYKVSNRFSGVPDRFSGSGSGTDFTLKISRVEAEDVGVYYCFQGSHVPYTFGGGTKVEIKR
